# Experimental data: PubChem BioAssay AID1259331 (Drosophila RNAi Screening Center, 2017)
# Purpose: 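Knock-downs that alter ATP level after a high zinc chloride dose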 (primary screen)
# System: Drosophila S2R+ cells
# Reagent: long dsRNA against Drosophila genes
# Duration: 5 days (4 days knock-down, then 1 day zinc)
# Conditions: zinc chloride at 15 mM final level for 1 day
# Read-out: 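Luminescent ATP assay standing in for viability; Z score is the mean over three replicate plates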
# Scale: mean Z score: higher = more ATP than other wells, better survival under zinc; ATP luminescence: higher = more ATP, more viable cells
# Rule for the call: 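a reagent is called a hit when its Z score is above 1.5 or below -1.5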
# Meaning of the calls: active = hit, ATP up or down; inactive = not a hit
# The deposit covers about 3,100 reagents; below is a random part of them. Of all reagents, 126 (4.1%) are marked active. 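Calls are per reagent; zinc was so toxic that few knock-downs lowered ATP further, so most hits raise ATP.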 Raw values are not corrected between plates. A number with no mark means an inactive call. Not stated in the record: the amount of reagent.
predicted target,amplicon,mean Z score,"ATP luminescence, replicate 1","ATP luminescence, replicate 2"
yin (GeneID 31340),DRSC21889,-0.121,47720,46451
yin (GeneID 31340),DRSC39804,0.358,60812,61764
Cad96Ca (GeneID 43026),DRSC14220,0.196,35702,62128
Cad96Ca (GeneID 43026),DRSC16693,-0.231,40159,42182
Cad96Ca (GeneID 43026),DRSC36738,-0.0805,47771,46554
CG42826 (GeneID 10178905),DRSC10682,-0.143,76256,57288
p24-1 (GeneID 32140),DRSC19827,2.92 (active),1.14e5,1.15e5
p24-1 (GeneID 32140),DRSC26718,0.469,69344,59654
Gr59c (GeneID 192481),DRSC04185,-0.0344,53327,39162
Hgsnat (GeneID 31423),DRSC18405,-0.214,41535,43228
Hgsnat (GeneID 31423),DRSC24716,-0.615,45525,41719
Tomosyn (GeneID 32217),DRSC19842,0.772,81179,76462
Tomosyn (GeneID 32217),DRSC25047,0.282,60534,55985
Or67d (GeneID 39191),DRSC10158,0.665,87594,70116
Or67d (GeneID 39191),DRSC39518,-0.22,53447,46554
PGRP-SC2 (GeneID 35862),DRSC06481,-0.0657,37759,45726
PGRP-SC2 (GeneID 35862),DRSC25449,0.17,59723,59603
CG34450 (GeneID 5740775),DRSC17822,-0.158,44771,44891
CG34450 (GeneID 5740775),DRSC25085,-0.0688,59946,58111
PlexB (GeneID 43766),DRSC17177,0.582,74712,76719
ifc (GeneID 33836),DRSC03549,-0.513,48869,49092
ifc (GeneID 33836),DRSC39666,-0.58,49692,51355
Or9a (GeneID 31975),DRSC18692,-0.299,60100,62107
Or9a (GeneID 31975),DRSC28277,0.52,73717,65005
Scgalpha (GeneID 34135),DRSC03076,-0.0169,46828,45800
Scgalpha (GeneID 34135),DRSC29625,-0.221,67715,48080
CG7744 (GeneID 37239),DRSC07036,0.0046,32273,33130
CG7744 (GeneID 37239),DRSC39431,0.537,57191,52007
Or7a (GeneID 31750),DRSC18691,-0.356,65142,55059
Fur2 (GeneID 32604),DRSC19817,0.0357,65691,67612
nAChRalpha4 (GeneID 40521),DRSC11925,-0.748,52795,54510
nAChRalpha4 (GeneID 40521),DRSC26817,0.0726,64130,58643
CG15211 (GeneID 32006),DRSC19657,-0.951,49332,51250
CG15211 (GeneID 32006),DRSC39768,-0.783,45182,45165
DAT (GeneID 36849),DRSC07394,-0.187,62913,67475
Tre1 (GeneID 140439),DRSC18726,6.21 (active),1.65e5,1.73e5
Tre1 (GeneID 140439),DRSC28244,-0.143,55815,57357
Mct1 (GeneID 31198),DRSC18681,-0.48,59534,56620
Mct1 (GeneID 31198),DRSC29006,-0.0358,59363,62347
mAChR-A (GeneID 37892),DRSC28262,-0.0264,61249,60718
PGRP-SD (GeneID 38858),DRSC10856,-0.648,64919,47411
CG3592 (GeneID 31282),DRSC18315,-0.404,60255,58420
CG3592 (GeneID 31282),DRSC39849,0.109,63067,52099
CG8908 (GeneID 37293),DRSC07297,-0.02,69584,73066
CG8908 (GeneID 37293),DRSC39602,0.289,63136,67637
Oatp58Db (GeneID 37544),DRSC04364,0.0152,66394,66205
Itpr (GeneID 40664),DRSC12354,-0.25,69653,57373
Itpr (GeneID 40664),DRSC28770,0.4,68624,66463
nebu (GeneID 39458),DRSC09807,-0.396,28063,26890
nebu (GeneID 39458),DRSC09808,0.643,89738,69190
CG4991 (GeneID 32695),DRSC19928,-0.565,37502,40056
CG4991 (GeneID 32695),DRSC39735,-0.569,48560,52607
caps (GeneID 39493),DRSC11333,-0.0188,74948,60186
caps (GeneID 39493),DRSC22224,0.0297,49778,60581
ACXD (GeneID 38284),DRSC23762,-0.569,48766,53841
CG31741 (GeneID 35079),DRSC02887,0.427,56225,40296
SP1173 (GeneID 38744),DRSC11277,-0.566,25708,28176
ZnT35C (GeneID 34890),DRSC01959,-0.178,45028,44998
ZnT35C (GeneID 34890),DRSC39419,0.324,54645,52247
CG13887 (GeneID 38096),DRSC08357,-0.296,31485,28742
Vha100-3 (GeneID 246543),DRSC05760,0.039,40451,44822
Vha100-3 (GeneID 246543),DRSC39558,-0.433,57768,50961
Or65a (GeneID 318011),DRSC08808,-0.0972,43630,44085
Or65a (GeneID 318011),DRSC39609,0.218,64508,61266
Zip42C.1 (GeneID 35579),DRSC05003,-0.232,88572,67303
CG14053 (GeneID 31197),DRSC17908,-0.658,55213,55061
CG14053 (GeneID 31197),DRSC39512,0.099,53225,50686
Tsp97E (GeneID 43241),DRSC16019,-0.672,36842,38376
Tsp97E (GeneID 43241),DRSC28053,-0.129,55788,54664

10 entries from above, showing only “mean Z score”:
Oatp58Db (GeneID 37544) [DRSC04364]	0.0152
Itpr (GeneID 40664) [DRSC12354]	-0.25
Itpr (GeneID 40664) [DRSC28770]	0.4
nebu (GeneID 39458) [DRSC09807]	-0.396
nebu (GeneID 39458) [DRSC09808]	0.643
CG4991 (GeneID 32695) [DRSC19928]	-0.565
CG4991 (GeneID 32695) [DRSC39735]	-0.569
caps (GeneID 39493) [DRSC11333]	-0.0188
caps (GeneID 39493) [DRSC22224]	0.0297
ACXD (GeneID 38284) [DRSC23762]	-0.569
